Where a chain is given by its changes, count along the chain named. These are yes or no findings as the source states them, for the method shown. Binding seen in cells or lysates may run through a third protein. A result given as binding can be weak or reduced; the word gives no strength. Tags and fused reporters may be left off the sequences shown.
Tests used:
[1] = biological target: T1, Myc-tagged Tensin2 1-1409 (WT, wild-type) (UniProt Q63HR2); assay: co-IP; HEK293T co-transfected with Myc-tagged tensin and FLAG-tagged DLC1 (or GFP-tagged DLC2); cleared lysate in NET-N buffer (25 mM Tris-HCl pH 8.0, 50 mM NaCl, 0.2 mM EDTA, 0.1% NP40); anti-Myc antibody overnight at 4°C, protein-A sepharose, 5 washes; blot with anti-FLAG (anti-GFP for DLC2)
T1 sequence: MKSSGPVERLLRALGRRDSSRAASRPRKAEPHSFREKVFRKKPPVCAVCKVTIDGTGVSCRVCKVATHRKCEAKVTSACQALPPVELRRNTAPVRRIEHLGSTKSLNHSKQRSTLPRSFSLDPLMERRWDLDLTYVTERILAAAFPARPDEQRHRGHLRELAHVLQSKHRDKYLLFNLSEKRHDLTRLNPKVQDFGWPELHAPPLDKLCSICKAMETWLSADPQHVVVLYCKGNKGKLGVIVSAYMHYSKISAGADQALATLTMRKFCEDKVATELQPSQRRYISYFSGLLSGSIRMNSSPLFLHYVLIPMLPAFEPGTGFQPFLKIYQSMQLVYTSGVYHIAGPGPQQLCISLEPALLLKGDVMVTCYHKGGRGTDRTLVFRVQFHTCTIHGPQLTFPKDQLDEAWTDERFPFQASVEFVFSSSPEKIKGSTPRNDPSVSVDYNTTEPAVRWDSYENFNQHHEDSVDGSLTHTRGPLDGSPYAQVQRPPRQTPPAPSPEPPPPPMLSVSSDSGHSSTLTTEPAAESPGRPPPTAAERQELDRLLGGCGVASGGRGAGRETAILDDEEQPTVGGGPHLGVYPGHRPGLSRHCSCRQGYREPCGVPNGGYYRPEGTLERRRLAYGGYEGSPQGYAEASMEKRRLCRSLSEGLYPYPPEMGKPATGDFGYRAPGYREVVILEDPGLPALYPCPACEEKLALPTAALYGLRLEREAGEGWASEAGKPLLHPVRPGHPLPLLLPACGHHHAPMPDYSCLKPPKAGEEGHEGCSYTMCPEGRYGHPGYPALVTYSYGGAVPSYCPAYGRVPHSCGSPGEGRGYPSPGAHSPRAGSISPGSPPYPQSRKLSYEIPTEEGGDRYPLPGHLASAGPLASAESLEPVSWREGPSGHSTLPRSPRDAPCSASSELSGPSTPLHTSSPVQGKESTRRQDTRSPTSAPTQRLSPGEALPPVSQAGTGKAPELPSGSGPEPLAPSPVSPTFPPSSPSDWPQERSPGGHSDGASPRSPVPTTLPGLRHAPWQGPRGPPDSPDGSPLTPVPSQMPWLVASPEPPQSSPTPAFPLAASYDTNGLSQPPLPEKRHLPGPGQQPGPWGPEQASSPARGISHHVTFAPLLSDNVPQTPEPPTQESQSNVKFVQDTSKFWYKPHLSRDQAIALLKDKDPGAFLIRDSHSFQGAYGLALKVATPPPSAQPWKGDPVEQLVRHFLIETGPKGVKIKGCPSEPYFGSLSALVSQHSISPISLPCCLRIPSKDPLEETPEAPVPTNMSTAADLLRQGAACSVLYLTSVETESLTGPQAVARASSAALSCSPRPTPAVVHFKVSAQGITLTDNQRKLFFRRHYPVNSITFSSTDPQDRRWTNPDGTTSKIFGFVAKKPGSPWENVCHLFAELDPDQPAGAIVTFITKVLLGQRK

[2] = biological target: T2, Myc-tagged Tensin2 R1165A (UniProt Q63HR2); assay: as above
T2 sequence: T1 sequence with R1165A

FLAG-tagged DLC1 1-370 (from UniProt Q96QB1-2) (domain or fragment)
binding [1]: no binding

FLAG-tagged DLC1 1-380 (from UniProt Q96QB1-2) (domain or fragment)
binding [1]: no binding

FLAG-tagged DLC1 1-385 (from UniProt Q96QB1-1) (domain or fragment)
binding [1]: binds

FLAG-tagged DLC1 1-440 (from UniProt Q96QB1-1) (domain or fragment)
binding [1]: binds

FLAG-tagged DLC1 S440A (human)
binding [2]: binds
binding [1]: binds

FLAG-tagged DLC1 Y442F (human)
binding [2]: binds
binding [1]: binds
